Laboratory results published in paper PMC11855355, “In-Situ Purification of Non-Ribosomal Peptide Synthetases Assembly Line for Structural and Biochemical Studies” (International Journal of Molecular Sciences, 2025).
No constants are given. Whether binding was seen depends on the method and setting. For some assays here: Binding seen in cells or lysates may run through a third protein. Some binding calls cover weakened binding; strength is not graded here.

Protein sequences, listed by entry. Tags and fused reporters are not part of them.
UniProt Q88F78: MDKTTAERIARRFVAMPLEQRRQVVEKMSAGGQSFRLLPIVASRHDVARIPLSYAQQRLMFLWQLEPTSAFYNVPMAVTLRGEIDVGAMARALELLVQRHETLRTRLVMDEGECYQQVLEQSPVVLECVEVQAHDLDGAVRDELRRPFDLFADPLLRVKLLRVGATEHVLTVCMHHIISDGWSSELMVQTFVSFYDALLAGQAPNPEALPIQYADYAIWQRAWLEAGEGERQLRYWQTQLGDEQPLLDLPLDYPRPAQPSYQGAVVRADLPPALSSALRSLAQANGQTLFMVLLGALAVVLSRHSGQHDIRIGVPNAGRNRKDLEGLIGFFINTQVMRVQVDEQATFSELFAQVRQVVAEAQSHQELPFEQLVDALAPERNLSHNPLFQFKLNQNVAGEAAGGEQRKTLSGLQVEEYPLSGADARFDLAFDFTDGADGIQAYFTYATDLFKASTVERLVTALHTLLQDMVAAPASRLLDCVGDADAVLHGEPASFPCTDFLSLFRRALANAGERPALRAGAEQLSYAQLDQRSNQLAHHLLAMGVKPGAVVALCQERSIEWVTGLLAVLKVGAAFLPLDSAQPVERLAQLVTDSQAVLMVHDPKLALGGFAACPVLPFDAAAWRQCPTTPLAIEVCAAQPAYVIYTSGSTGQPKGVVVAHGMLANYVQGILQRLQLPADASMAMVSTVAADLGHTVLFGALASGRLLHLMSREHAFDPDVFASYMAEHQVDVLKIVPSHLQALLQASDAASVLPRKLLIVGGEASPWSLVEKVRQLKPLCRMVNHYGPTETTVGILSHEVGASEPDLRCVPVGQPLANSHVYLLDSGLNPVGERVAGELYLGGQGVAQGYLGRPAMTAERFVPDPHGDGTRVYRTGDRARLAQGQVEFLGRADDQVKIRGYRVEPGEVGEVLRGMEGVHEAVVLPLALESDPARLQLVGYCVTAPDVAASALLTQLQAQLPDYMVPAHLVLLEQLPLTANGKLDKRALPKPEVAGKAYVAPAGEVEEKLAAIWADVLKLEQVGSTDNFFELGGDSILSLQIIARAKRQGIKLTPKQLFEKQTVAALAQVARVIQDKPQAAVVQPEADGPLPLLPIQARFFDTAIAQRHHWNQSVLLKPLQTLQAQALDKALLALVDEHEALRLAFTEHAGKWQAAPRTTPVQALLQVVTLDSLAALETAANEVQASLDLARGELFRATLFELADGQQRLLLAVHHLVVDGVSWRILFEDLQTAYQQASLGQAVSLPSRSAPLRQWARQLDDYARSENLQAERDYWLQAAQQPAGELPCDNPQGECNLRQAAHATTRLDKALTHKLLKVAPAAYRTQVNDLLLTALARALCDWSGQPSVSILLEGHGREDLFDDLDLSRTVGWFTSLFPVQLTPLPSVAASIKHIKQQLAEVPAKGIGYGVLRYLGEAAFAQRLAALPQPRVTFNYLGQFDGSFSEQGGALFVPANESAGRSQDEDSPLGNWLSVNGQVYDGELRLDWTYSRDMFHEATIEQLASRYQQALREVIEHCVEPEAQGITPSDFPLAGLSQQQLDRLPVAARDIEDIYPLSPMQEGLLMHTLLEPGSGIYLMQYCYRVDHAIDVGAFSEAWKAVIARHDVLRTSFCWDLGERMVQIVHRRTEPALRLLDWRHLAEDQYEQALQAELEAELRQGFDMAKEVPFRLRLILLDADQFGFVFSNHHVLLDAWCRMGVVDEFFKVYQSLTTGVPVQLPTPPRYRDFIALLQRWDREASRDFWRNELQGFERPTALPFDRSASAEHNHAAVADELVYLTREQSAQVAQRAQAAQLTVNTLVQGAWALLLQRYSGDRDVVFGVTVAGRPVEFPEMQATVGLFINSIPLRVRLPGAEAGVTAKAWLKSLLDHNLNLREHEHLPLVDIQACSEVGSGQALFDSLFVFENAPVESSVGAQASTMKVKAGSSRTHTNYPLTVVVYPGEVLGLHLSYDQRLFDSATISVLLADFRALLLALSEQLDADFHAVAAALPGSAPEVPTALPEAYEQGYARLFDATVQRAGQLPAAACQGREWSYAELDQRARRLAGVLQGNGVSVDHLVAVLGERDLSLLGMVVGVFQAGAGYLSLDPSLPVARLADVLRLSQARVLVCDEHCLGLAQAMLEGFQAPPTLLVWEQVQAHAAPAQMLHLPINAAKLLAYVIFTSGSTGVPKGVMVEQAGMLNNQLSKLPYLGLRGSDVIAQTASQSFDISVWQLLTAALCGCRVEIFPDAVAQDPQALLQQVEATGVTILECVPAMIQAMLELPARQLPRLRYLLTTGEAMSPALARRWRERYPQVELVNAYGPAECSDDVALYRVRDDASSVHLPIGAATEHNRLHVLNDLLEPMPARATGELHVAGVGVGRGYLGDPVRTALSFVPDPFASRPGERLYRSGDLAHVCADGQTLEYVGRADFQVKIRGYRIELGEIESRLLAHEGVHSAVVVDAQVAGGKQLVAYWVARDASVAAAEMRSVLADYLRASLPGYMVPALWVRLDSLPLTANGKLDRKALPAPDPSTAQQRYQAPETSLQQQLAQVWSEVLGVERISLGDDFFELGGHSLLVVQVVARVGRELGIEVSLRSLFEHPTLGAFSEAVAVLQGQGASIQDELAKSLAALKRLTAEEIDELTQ
UniProt Q88F77: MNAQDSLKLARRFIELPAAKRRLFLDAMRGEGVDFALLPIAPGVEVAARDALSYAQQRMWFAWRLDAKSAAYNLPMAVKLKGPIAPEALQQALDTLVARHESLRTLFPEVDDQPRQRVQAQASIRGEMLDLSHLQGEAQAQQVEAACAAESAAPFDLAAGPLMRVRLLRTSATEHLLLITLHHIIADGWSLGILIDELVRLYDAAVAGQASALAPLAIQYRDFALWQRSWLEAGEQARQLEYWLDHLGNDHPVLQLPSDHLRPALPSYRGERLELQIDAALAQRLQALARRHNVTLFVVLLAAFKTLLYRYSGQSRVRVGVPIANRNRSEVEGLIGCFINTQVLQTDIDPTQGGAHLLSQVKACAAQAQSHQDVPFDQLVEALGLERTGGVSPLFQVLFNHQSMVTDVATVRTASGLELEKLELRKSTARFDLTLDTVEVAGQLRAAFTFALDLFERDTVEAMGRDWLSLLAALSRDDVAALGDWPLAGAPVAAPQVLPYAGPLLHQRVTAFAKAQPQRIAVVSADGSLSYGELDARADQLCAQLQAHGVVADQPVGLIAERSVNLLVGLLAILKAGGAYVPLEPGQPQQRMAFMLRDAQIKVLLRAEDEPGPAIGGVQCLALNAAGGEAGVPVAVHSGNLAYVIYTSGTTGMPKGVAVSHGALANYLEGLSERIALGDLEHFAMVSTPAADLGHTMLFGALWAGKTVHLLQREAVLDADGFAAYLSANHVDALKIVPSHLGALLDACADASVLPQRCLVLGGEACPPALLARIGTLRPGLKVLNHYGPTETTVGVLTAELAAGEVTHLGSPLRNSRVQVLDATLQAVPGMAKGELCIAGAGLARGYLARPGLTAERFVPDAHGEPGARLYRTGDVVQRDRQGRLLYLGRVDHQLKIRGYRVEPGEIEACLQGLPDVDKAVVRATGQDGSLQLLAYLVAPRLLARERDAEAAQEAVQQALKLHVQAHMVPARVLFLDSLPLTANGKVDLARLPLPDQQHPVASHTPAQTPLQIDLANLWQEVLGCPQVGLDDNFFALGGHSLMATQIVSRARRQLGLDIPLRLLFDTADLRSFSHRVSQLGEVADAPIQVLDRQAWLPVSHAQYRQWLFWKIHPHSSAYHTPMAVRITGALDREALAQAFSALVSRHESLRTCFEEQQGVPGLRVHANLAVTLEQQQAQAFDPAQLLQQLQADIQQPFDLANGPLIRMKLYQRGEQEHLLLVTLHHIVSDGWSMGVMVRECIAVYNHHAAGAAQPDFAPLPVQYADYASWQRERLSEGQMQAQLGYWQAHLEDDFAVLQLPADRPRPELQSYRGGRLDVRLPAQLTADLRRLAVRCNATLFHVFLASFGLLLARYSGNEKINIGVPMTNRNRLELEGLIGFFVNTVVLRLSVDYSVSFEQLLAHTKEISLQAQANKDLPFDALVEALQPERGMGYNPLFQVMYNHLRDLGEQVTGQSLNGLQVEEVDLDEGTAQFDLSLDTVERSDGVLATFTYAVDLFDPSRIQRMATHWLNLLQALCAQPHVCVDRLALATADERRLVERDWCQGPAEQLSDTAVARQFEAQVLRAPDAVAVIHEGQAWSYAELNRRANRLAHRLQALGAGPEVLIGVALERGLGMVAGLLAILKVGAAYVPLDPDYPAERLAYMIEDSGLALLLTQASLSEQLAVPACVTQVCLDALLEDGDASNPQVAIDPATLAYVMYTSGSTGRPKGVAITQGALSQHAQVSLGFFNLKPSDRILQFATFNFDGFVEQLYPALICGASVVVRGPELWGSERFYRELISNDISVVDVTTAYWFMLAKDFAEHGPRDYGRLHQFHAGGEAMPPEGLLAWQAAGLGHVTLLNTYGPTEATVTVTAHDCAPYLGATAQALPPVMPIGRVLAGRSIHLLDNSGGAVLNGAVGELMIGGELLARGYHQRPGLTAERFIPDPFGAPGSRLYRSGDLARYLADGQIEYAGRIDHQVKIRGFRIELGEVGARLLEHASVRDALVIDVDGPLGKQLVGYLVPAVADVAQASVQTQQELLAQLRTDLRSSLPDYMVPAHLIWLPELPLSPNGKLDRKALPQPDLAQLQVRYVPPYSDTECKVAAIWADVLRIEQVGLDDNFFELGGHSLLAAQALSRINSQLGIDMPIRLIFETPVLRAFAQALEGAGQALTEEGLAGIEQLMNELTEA

How the values were obtained:
[1] = biological target: PvdD with a C-terminal 6 × His + Flag (cHF) tag (Pseudomonas putida KT2440) (UniProt Q88F79); assay: negative-stain electron microscopy; subunits purified by one-step Flag affinity and Superose 6 Increase SEC (50 mM Hepes, 10 mM NaCl, pH 7.6), diluted to 0.025 mg/mL, uranium acetate stain, 120 keV; both purified
[2] = biological target: PvdD with a C-terminal 6 × His + Flag (cHF) tag (Pseudomonas putida KT2440) (UniProt Q88F79); assay: native gel or EMSA; native PAGE of the purified tagged PVD NRPS subunits; both purified
[3] = biological target: MbtH-like protein (MLP) PP3808 with a C-terminal 6 × His + Strep tag (Pseudomonas putida KT2440) (UniProt Q88GB6); assay: pull-down; tandem affinity: IMAC (Ni-TED) eluate of the PP3808cHS strain lysate applied to Streptactin resin, eluted with 2.5 mM dethiobiotin; SDS-PAGE
[4] = biological target: PvdL with a C-terminal 6 × His + Flag (cHF) tag (Pseudomonas putida KT2440) (UniProt Q88F56); assay: pull-down; one-step Flag affinity: clarified lysate of the tag knock-in strain incubated with Flag-M2 resin 4 h at 4 °C in Buffer A (50 mM Hepes, 150 mM NaCl, 5% glycerol, pH 7.6), washed, eluted with 0.1 mg/mL 3 × Flag peptide; SDS-PAGE
[5] = biological target: MbtH-like protein (MLP) PP3808 with a C-terminal 6 × His + Flag tag (Pseudomonas putida KT2440) (UniProt Q88GB6); assay: as above
[6] = biological target: PvdJ with a C-terminal 6 × His + Flag (cHF) tag (Pseudomonas putida KT2440) (UniProt Q88F78); assay: as above
[7] = biological target: PvdI with a C-terminal 6 × His + Flag (cHF) tag (Pseudomonas putida KT2440) (UniProt Q88F77); assay: as above
[8] = biological target: PvdL with a C-terminal 6 × His + Flag (cHF) tag (Pseudomonas putida KT2440) (UniProt Q88F56); assay: pull-down; one-step IMAC: clarified lysate of the tag knock-in strain incubated with Ni-TED resin 1 h at 4 °C in Buffer A (50 mM Hepes, 150 mM NaCl, 5% glycerol, pH 7.6), washed, eluted with 200 mM imidazole; SDS-PAGE
[9] = biological target: MbtH-like protein (MLP) PP3808 with a C-terminal 6 × His + Flag tag (Pseudomonas putida KT2440) (UniProt Q88GB6); assay: as above
[10] = biological target: PvdJ with a C-terminal 6 × His + Flag (cHF) tag (Pseudomonas putida KT2440) (UniProt Q88F78); assay: as above
[11] = biological target: PvdI with a C-terminal 6 × His + Flag (cHF) tag (Pseudomonas putida KT2440) (UniProt Q88F77); assay: as above
[12] = biological target: PvdI with a C-terminal 6 × His + Flag (cHF) tag (Pseudomonas putida KT2440) (UniProt Q88F77); assay: negative-stain electron microscopy; subunits purified by one-step Flag affinity and Superose 6 Increase SEC (50 mM Hepes, 10 mM NaCl, pH 7.6), diluted to 0.025 mg/mL, uranium acetate stain, 120 keV; both purified
[13] = biological target: PvdI with a C-terminal 6 × His + Flag (cHF) tag (Pseudomonas putida KT2440) (UniProt Q88F77); assay: native gel or EMSA; native PAGE of the purified tagged PVD NRPS subunits; both purified
[14] = biological target: PvdD with a C-terminal 6 × His + Flag (cHF) tag (Pseudomonas putida KT2440) (UniProt Q88F79); assay: pull-down; one-step Flag affinity: clarified lysate of the tag knock-in strain incubated with Flag-M2 resin 4 h at 4 °C in Buffer A (50 mM Hepes, 150 mM NaCl, 5% glycerol, pH 7.6), washed, eluted with 0.1 mg/mL 3 × Flag peptide; SDS-PAGE
[15] = biological target: PvdD with a C-terminal 6 × His + Flag (cHF) tag (Pseudomonas putida KT2440) (UniProt Q88F79); assay: pull-down; one-step IMAC: clarified lysate of the tag knock-in strain incubated with Ni-TED resin 1 h at 4 °C in Buffer A (50 mM Hepes, 150 mM NaCl, 5% glycerol, pH 7.6), washed, eluted with 200 mM imidazole; SDS-PAGE
[16] = biological target: PvdJ with a C-terminal 6 × His + Flag (cHF) tag (Pseudomonas putida KT2440) (UniProt Q88F78); assay: negative-stain electron microscopy; subunits purified by one-step Flag affinity and Superose 6 Increase SEC (50 mM Hepes, 10 mM NaCl, pH 7.6), diluted to 0.025 mg/mL, uranium acetate stain, 120 keV; both purified
[17] = biological target: PvdJ with a C-terminal 6 × His + Flag (cHF) tag (Pseudomonas putida KT2440) (UniProt Q88F78); assay: native gel or EMSA; native PAGE of the purified tagged PVD NRPS subunits; both purified
[18] = biological target: PvdL with a C-terminal 6 × His + Flag (cHF) tag (Pseudomonas putida KT2440) (UniProt Q88F56); assay: negative-stain electron microscopy; subunits purified by one-step Flag affinity and Superose 6 Increase SEC (50 mM Hepes, 10 mM NaCl, pH 7.6), diluted to 0.025 mg/mL, uranium acetate stain, 120 keV; both purified
[19] = biological target: PvdL with a C-terminal 6 × His + Flag (cHF) tag (Pseudomonas putida KT2440) (UniProt Q88F56); assay: native gel or EMSA; native PAGE of the purified tagged PVD NRPS subunits; both purified

binding [3]	binding [4]	binding [5]	binding [6]	binding [7]	binding [8]	binding [9]	binding [10]	binding [11]	binding [14]	binding [15]	Substance	other results
–	–	–	–	–	–	–	–	–	–	–	PvdD with a C-terminal 6 × His + Flag (cHF) tag (from UniProt Q88F79 1-3470) (enzyme)	binding [1]: no binding; binding [2]: no binding
binds	no binding	binds	no binding	no binding	no binding	binds	no binding	no binding	–	–	PvdD, pyoverdine (PVD) NRPS subunit, untagged (from UniProt Q88F79 1-3470) (enzyme)	–
–	–	–	–	–	–	–	–	–	–	–	PvdI with a C-terminal 6 × His + Flag (cHF) tag (from UniProt Q88F77 1-2174) (enzyme)	binding [12]: no binding; binding [13]: no binding
binds	no binding	binds	no binding	–	no binding	binds	no binding	–	no binding	no binding	PvdI, pyoverdine (PVD) NRPS subunit, untagged (from UniProt Q88F77 1-2174) (enzyme)	–
–	–	–	–	–	–	–	–	–	–	–	PvdJ with a C-terminal 6 × His + Flag (cHF) tag (from UniProt Q88F78 1-2628) (enzyme)	binding [16]: no binding; binding [17]: no binding
binds	no binding	binds	–	no binding	no binding	binds	–	no binding	no binding	no binding	PvdJ, pyoverdine (PVD) NRPS subunit, untagged (from UniProt Q88F78 1-2628) (enzyme)	–
–	–	–	–	–	–	–	–	–	–	–	PvdL with a C-terminal 6 × His + Flag (cHF) tag (from UniProt Q88F56 1-4317) (enzyme)	binding [18]: no binding; binding [19]: no binding
binds	–	binds	no binding	no binding	–	binds	no binding	no binding	no binding	no binding	PvdL, pyoverdine (PVD) NRPS subunit, untagged (from UniProt Q88F56 1-4317) (enzyme)	–
